According to US20250144186A1, “NOVEL THERAPEUTIC USES OF GARDNERELLA ENDOLYSINS” (priority 2022, published 2025):

Assays:
G. vaginalis biofilm = experiment: MBEC on pre-formed biofilms of ancestor isolates; assay type: cell-based, Gardnerella vaginalis
Method: (§1) Gardnerella spp. (see figures for strain specification) was resuspended in brain heart infusion broth supplemented with 2% (w/v) gelatin, 0.5% yeast extract (w/v), 0.1% starch (w/v) and 0.25% glucose (w/v) (sBHIG). Passaged strains were resuspended in unbuffered NYCB supplemented with 1% glucose (w/v) (sNYCB). The OD600 was set to 0.1 (approx. 10^7-10^8 CFU/mL) and the cell suspension was diluted 1:10 in growth medium as input for biofilm formation. A total of 200 μL of the respective bacterial suspensions was added to 96-well flat bottom plates (tissue-culture treated, Sigma-Aldrich). The biofilms were grown under anaerobic conditions at 37° C. for 40 to 72 hours, depending on the isolate. Subsequently, the supernatant was removed, and the biofilm was treated with antimicrobials dissolved in sBHIG (at pH 5 for treatment with PM-477 (H2B10), and unbuffered for treatment with antibiotics) in 100 μL and incubated anaerobically at 37° C. for another 24 hours. After the treatment, the biofilms were washed twice with 200 μL 1x PBS and dissolved by vigorous pipetting (40x up and down). Serial dilutions of the dissolved cells were spotted on chocolate agar plates. The plates were incubated anaerobically for two to three days and the minimum biofilm eradication concentration (MBEC) of the endolysin or the antibiotics in use were calculated.
Gardnerella dominated biofilms covering the human vaginal epithelial cells are now generally considered as a hallmark of BV. Thus, it was tested how effective antibiotics and PM-477 (H2B10) are in penetrating and killing in vitro pre-formed, 40-72 h old biofilms of various Gardnerella strains.

[1] = system: Gardnerella strains grown as biofilm; experiment: MBEC on pre-formed biofilms, summary over ancestor strains; assay type: cell-based, Gardnerella spp.
Method: as §1, with “calculated. […]” for “calculated.”

## CCC[C@@H]1C[C@@H](C(=O)N[C@@H]([C@H]2O[C@H](SC)[C@H](O)[C@@H](O)[C@H]2O)[C@H](C)Cl)N(C)C1 [CLI, clindamycin]
G. vaginalis biofilm; ancestor G. vaginalis ATCC14018, pre-formed biofilm, 24 h treatment
  MBEC: >512 µg/mL
G. vaginalis biofilm; ancestor G. vaginalis UGent 09.07, pre-formed biofilm
  MBEC: >512 µg/mL
G. vaginalis biofilm; ancestor G. vaginalis UGent BV50, pre-formed biofilm
  MBEC: >512 µg/mL
G. vaginalis biofilm; ancestor G. vaginalis UGent BV111.5, pre-formed biofilm
  MBEC: >512 µg/mL
G. vaginalis biofilm; ancestor G. vaginalis UGent FB049, pre-formed biofilm
  MBEC: >512 µg/mL
[1]; 7 out of 9 tested Gardnerella strains, biofilm
  MBEC: > 512 µg/mL
[1]; ancestor Gardnerella strains, 40-72 h old pre-formed biofilms
  MBEC, range over strains: ≥ 512 µg/mL
